The labels stand for the following.
B1: VPS18 (protein, UniProt Q9P253 1-973)
chain: MASILDEYENSLSRSAVLQPGCPSVGIPHSGYVNAQLEKEVPIFTKQRIDFTPSERITSLVVSSNQLCMSLGKDTLLRIDLGKANEPNHVELGRKDDAKVHKMFLDHTGSHLLIALSSTEVLYVNRNGQKVRPLARWKGQLVESVGWNKALGTESSTGPILVGTAQGHIFEAELSASEGGLFGPAPDLYFRPLYVLNEEGGPAPVCSLEAERGPDGRSFVIATTRQRLFQFIGRAAEGAEAQGFSGLFAAYTDHPPPFREFPSNLGYSELAFYTPKLRSAPRAFAWMMGDGVLYGALDCGRPDSLLSEERVWEYPEGVGPGASPPLAIVLTQFHFLLLLADRVEAVCTLTGQVVLRDHFLEKFGPLKHMVKDSSTGQLWAYTERAVFRYHVQREARDVWRTYLDMNRFDLAKEYCRERPDCLDTVLAREADFCFRQRRYLESARCYALTQSYFEEIALKFLEARQEEALAEFLQRKLASLKPAERTQATLLTTWLTELYLSRLGALQGDPEALTLYRETKECFRTFLSSPRHKEWLFASRASIHELLASHGDTEHMVYFAVIMQDYERVVAYHCQHEAYEEALAVLARHRDPQLFYKFSPILIRHIPRQLVDAWIEMGSRLDARQLIPALVNYSQGGEVQQVSQAIRYMEFCVNVLGETEQAIHNYLLSLYARGRPDSLLAYLEQAGASPHRVHYDLKYALRLCAEHGHHRACVHVYKVLELYEEAVDLALQVDVDLAKQCADLPEEDEELRKKLWLKIARHVVQEEEDVQTAMACLASCPLLKIEDVLPFFPDFVTIDHFKEAICSSLKAYNHHIQELQREMEEATASAQRIRRDLQELRGRYGTVEPQDKCATCDFPLLNRPFYLFLCGHMFHADCLLQAVRPGLPAYKQARLEELQRKLGAAPPPAKGSARAKEAEGGAATAGPSREQLKADLDELVAAECVYCGELMIRSIDRPFIDPQRYEEEQLSWL
B2: VPS41 (protein, UniProt P49754 1-854)
chain: MAEAEEQETGSLEESTDESEEEESEEEPKLKYERLSNGVTEILQKDAASCMTVHDKFLALGTHYGKVYLLDVQGNITQKFDVSPVKINQISLDESGEHMGVCSEDGKVQVFGLYSGEEFHETFDCPIKIIAVHPHFVRSSCKQFVTGGKKLLLFERSWMNRWKSAVLHEGEGNIRSVKWRGHLIAWANNMGVKIFDIISKQRITNVPRDDISLRPDMYPCSLCWKDNVTLIIGWGTSVKVCSVKERHASEMRDLPSRYVEIVSQFETEFYISGLAPLCDQLVVLSYVKEISEKTEREYCARPRLDIIQPLSETCEEISSDALTVRGFQENECRDYHLEYSEGESLFYIVSPRDVVVAKERDQDDHIDWLLEKKKYEEALMAAEISQKNIKRHKILDIGLAYINHLVERGDYDIAARKCQKILGKNAALWEYEVYKFKEIGQLKAISPYLPRGDPVLKPLIYEMILHEFLESDYEGFATLIREWPGDLYNNSVIVQAVRDHLKKDSQNKTLLKTLAELYTYDKNYGNALEIYLTLRHKDVFQLIHKHNLFSSIKDKIVLLMDFDSEKAVDMLLDNEDKISIKKVVEELEDRPELQHVYLHKLFKRDHHKGQRYHEKQISLYAEYDRPNLLPFLRDSTHCPLEKALEICQQRNFVEETVYLLSRMGNSRSALKMIMEELHDVDKAIEFAKEQDDGELWEDLILYSIDKPPFITGLLNNIGTHVDPILLIHRIKEGMEIPNLRDSLVKILQDYNLQILLREGCKKILVADSLSLLKKMHRTQMKGVLVDEENICESCLSPILPSDAAKPFSVVVFHCRHMFHKECLPMPSMNSAAQFCNICSAKNRGPGSAILEMKK
B3: VPS16 (protein, UniProt Q9H269 1-839)
chain: MDCYTANWNPLGDSAFYRKYELYSMDWDLKEELRDCLVAAAPYGGPIALLRNPWRKEKAASVRPVLDIYSASGMPLASLLWKSGPVVSLGWSAEEELLCVQEDGAVLVYGLHGDFRRHFSMGNEVLQNRVLDARIFHTEFGSGVAILTGAHRFTLSANVGDLKLRRMPEVPGLQSAPSCWTVLCQDRVAHILLAVGPDLYLLDHAACSAVTPPGLAPGVSSFLQMAVSFTYRHLALFTDTGYIWMGTASLKEKLCEFNCNIRAPPKQMVWCSRPRSKERAVVVAWERRLMVVGDAPESIQFVLDEDSYLVPELDGVRIFSRSTHEFLHEVPAASEEIFKIASMAPGALLLEAQKEYEKESQKADEYLREIQELGQLTQAVQQCIEAAGHEHQPDMQKSLLRAASFGKCFLDRFPPDSFVHMCQDLRVLNAVRDYHIGIPLTYSQYKQLTIQVLLDRLVLRRLYPLAIQICEYLRLPEVQGVSRILAHWACYKVQQKDVSDEDVARAINQKLGDTPGVSYSDIAARAYGCGRTELAIKLLEYEPRSGEQVPLLLKMKRSKLALSKAIESGDTDLVFTVLLHLKNELNRGDFFMTLRNQPMALSLYRQFCKHQELETLKDLYNQDDNHQELGSFHIRASYAAEERIEGRVAALQTAADAFYKAKNEFAAKATEDQMRLLRLQRRLEDELGGQFLDLSLHDTVTTLILGGHNKRAEQLARDFRIPDKRLWWLKLTALADLEDWEELEKFSKSKKSPIGYLPFVEICMKQHNKYEAKKYASRVGPEQKVKALLLVGDVAQAADVAIEHRNEAELSLVLSHCTGATDGATADKIQRARAQAQKK

Chains of the proteins cited; added tags and fusions are not shown.
UniProt Q8TD16: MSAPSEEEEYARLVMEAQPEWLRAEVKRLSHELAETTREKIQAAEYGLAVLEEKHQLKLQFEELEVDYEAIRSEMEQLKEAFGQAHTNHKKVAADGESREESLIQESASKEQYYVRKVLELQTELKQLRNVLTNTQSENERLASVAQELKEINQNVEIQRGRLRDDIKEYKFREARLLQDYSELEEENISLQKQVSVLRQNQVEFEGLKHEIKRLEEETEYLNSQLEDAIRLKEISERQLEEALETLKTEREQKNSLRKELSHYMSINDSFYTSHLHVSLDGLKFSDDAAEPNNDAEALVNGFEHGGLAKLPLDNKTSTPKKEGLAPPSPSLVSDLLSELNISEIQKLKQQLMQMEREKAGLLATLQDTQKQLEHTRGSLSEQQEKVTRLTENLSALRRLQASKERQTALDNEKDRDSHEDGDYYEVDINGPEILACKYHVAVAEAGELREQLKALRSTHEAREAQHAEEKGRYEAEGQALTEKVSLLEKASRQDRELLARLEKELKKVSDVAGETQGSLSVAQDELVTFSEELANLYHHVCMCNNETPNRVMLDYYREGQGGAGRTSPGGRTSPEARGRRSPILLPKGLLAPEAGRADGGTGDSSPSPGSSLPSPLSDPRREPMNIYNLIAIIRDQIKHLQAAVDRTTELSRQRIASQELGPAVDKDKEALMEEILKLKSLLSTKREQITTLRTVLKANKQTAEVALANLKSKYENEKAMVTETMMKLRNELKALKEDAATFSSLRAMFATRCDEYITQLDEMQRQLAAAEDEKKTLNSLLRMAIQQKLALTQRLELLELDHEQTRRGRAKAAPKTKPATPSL

In article PMC12674617 one finds binding data, which are given here for 3 molecules.

Results are given in words; binding and its absence hold for the method and conditions named. Binding seen in cells or lysates may run through a third protein. Some binding calls cover weakened binding; strength is not graded here.

This test addresses full-length BICD2 tagged on the C-terminus with mini-TurboID (BICD2-mTrbo) (human) (UniProt Q8TD16). Nature of the test: co-IP; HEK293 FLP-in T-Rex cells, Tet induction 1 µg/ml 24 hr; lysate in RIPA buffer, 1 mg protein, V5-Trap agarose beads 2 hr at 4 °C, four RIPA washes, western blot; also in cells treated with siRNA to endogenous BICD2.
On to B1, for which the binding result is “binds”. B2: the binding entry was “binds”. B3: the binding entry is listed as “binds”.
